Experimental findings from patent publication US20260083851A1 (AVILAR THERAPEUTICS, INC., priority 2022, published 2026) are described below.

By UniProt entry, the sequences of proteins in these tests, tags left out.
UniProt P07306, whole entry: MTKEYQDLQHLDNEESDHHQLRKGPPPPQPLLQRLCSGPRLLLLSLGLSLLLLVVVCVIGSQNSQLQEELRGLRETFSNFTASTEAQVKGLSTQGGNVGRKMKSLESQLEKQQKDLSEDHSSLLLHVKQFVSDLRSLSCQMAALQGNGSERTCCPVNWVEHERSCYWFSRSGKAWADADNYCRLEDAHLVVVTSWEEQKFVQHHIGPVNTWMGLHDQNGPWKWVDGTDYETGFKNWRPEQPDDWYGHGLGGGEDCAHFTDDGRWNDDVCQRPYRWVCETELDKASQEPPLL

Structures were worked out from names or drawings and are uncertain.

In one assay the target is ASGP receptor (biotinylated ASGPR) (Homo sapiens, UniProt P07306). Type of assay: binding. The settings on record: read-out: ASGPR KD; SPR, Biacore 8K, 25° C.; Table 1A. A general note: Surface plasmon resonance follows binding to a sensor surface in real time, without labels.
The Kd is the free concentration of one partner at which half of the binding sites on the other are occupied at equilibrium, for simple one-to-one binding. On to `C[C@@H](NC[C@H]1OC[C@H](Nc2cncc(C(F)(F)F)n2)[C@@H](O)[C@H]1O)c1ncccn1` (single isomer, unassigned), for which the Kd was below 10 µM.

Consider `N#Cc1cc(C(=O)NC[C@H]2OC[C@H](Nc3cncc(C(F)(F)F)n3)[C@@H](O)[C@H]2O)[nH]n1`, for which the Kd is below 10 µM.

As to `[N-]=[N+]=NCCCCCC(=O)NC(COCCC(=O)NCCOCCOCCOCCOC[C@H]1OC[C@H](Nc2cncc(C(F)(F)F)n2)[C@@H](O)[C@H]1O)COCCC(=O)NCCOCCOCCOCCOC[C@H]1OC[C@H](Nc2cncc(C(F)(F)F)n2)[C@@H](O)[C@H]1O`, the Kd is below 10 µM.

On to `O[C@@H]1[C@H](O)[C@@H](Nc2cncc(C(F)(F)F)n2)CO[C@@H]1CN1CCN(CC2CCNCC2)CC1`, for which the Kd was below 10 µM.

In the case of `C[C@H](NC[C@H]1OC[C@H](Nc2cncc(C(F)(F)F)n2)[C@@H](O)[C@H]1O)c1ncccn1` (single isomer, unassigned), the Kd was below 10 µM.

The assay is the same for the next values; noted with them: read-out: ASGPR KD; SPR, Biacore 8K, 25° C.; Table 1C.
Consider `C#C[C@H]1OC[C@H](Nc2cncc(C(F)(F)F)n2)[C@@H](O)[C@H]1O`, for which the Kd was below 10 µM.
